Results as given in US20080102032A1.
These are yes or no findings as the source states them, for the method shown. Binding seen in cells or lysates may run through a third protein. A yes stands for co-enrichment or nearness to the bait. Other partners may have been found.

By UniProt entry, the sequences of proteins in these tests, tags left out. Residues count along the entry.
UniProt P53762, residues 2-791: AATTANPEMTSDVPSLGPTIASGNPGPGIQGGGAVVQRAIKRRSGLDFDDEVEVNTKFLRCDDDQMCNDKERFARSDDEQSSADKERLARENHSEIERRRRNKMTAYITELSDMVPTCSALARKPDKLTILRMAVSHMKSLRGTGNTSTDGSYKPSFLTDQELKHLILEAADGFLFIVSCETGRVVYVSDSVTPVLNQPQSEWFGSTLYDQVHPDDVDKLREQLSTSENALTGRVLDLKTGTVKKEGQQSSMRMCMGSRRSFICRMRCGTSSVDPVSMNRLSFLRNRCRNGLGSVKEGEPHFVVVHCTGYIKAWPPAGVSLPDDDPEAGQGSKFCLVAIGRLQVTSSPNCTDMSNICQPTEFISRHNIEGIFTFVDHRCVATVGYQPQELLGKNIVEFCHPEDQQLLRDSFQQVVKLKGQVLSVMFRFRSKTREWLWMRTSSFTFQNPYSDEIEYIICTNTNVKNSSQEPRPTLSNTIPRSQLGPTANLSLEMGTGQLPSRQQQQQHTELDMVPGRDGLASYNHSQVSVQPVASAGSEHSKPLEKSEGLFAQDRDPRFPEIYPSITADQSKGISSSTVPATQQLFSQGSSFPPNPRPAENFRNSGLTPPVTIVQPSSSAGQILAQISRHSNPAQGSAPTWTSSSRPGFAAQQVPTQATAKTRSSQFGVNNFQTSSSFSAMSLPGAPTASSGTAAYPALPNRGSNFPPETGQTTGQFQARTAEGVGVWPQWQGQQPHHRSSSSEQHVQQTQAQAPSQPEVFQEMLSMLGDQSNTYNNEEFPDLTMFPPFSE
UniProt Q61324: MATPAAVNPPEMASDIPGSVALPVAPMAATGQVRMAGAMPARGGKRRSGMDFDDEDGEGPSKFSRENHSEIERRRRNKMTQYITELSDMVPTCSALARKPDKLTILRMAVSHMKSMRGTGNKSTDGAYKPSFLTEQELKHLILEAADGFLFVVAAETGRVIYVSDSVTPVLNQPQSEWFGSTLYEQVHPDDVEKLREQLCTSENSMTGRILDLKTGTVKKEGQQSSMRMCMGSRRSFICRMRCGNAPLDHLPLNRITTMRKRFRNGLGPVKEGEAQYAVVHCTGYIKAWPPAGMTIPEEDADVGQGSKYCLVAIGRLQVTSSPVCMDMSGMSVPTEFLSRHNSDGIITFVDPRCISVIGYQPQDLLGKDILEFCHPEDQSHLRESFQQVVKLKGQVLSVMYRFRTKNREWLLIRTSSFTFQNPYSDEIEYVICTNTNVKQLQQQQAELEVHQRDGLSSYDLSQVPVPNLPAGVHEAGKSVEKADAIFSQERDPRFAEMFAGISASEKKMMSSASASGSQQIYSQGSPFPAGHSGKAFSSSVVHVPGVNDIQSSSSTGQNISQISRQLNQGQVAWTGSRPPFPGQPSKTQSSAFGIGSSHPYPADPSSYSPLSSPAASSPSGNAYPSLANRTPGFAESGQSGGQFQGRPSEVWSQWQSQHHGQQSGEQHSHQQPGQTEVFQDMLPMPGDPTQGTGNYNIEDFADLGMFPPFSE

How the values were obtained:
[1] = target: aryl hydrocarbon receptor nuclear translocator (ARNT), endogenous in Min6 cells (mouse) (UniProt P53762); test: co-immunoprecipitation from Min6 cells, Western blot; confirmed by mass spectrometry
[2] = target: aryl hydrocarbon receptor nuclear translocator (ARNT), endogenous in Min6 cells (mouse) (UniProt P53762); test: affinity purification of ARNT from Min6 cells, mass spectrometry

aryl hydrocarbon nuclear receptor translocator 2 (ARNT2), endogenous in murine Min6 cells (from UniProt Q61324 1-712)
binding [1]: binds | binding [2]: binds
